Data on 1 molecule can be found in article doi:10.1101/2024.04.01.587525.

No constants are given. Whether binding was seen depends on the method and setting. Binding seen in cells or lysates may run through a third protein. Some binding calls cover weakened binding; strength is not graded here. Where a sequence is shown, tags or fusion partners need not be part of it.

This experiment deals with T1, DNA Damage Binding protein 2 (DDB2)-FLAG fusion protein (Arabidopsis thaliana) (UniProt Q6NQ88).
T1 sequence: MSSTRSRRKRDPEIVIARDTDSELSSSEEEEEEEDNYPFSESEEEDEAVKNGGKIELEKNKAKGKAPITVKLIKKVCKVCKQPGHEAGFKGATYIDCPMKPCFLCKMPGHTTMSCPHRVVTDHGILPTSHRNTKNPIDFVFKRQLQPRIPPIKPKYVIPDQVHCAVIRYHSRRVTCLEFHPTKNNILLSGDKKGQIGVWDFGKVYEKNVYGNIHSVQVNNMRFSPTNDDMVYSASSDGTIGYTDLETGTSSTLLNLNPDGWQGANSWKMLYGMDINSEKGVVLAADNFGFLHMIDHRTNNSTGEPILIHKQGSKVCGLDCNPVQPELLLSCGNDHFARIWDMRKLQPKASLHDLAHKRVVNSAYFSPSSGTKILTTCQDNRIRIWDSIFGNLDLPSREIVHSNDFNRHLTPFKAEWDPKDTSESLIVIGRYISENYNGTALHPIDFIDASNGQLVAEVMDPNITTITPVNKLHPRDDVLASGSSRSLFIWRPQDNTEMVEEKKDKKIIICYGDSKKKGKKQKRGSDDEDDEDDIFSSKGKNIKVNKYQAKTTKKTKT
Nature of the experiment: co-IP.

B1: Jumonji27 (JMJ27)-GFP fusion protein (protein, UniProt Q8VYB9 1-840)
chain: MEKMRGKRIRPRDSGELVEDGRSESERKTRKKENDVVSKGRIGRGRGRGEVSKRSIEIDISNPEKDIKPDGSRKCLGSTCHHCKILTSESDLIFCSKCNKKCYCFDCIKRSYSERTHEEVRAACPFCMMTCICRACLRLPLVIKPPSEKDTDVKLKQLQYLLVKVLPVLKDIYTEQNRELEIESTIRGHPVTEANIKRCKLDPSERIYCDLCRTSIANFHRSCPNKNCSVDICLSCCKELSEGFHQERDGKKNAEGKGYECRIPAGQGKDSDAYVPLHFSTWKLNSDSSIPCPPKECGGCGTSTLELRRLWKRDWVEKLITNAEKCTLNFRPTDVDIVHECSSCSTNSDSIRRQAAFRKNAHDNFLYSPNAVDLAEDDIAHFQFHWMKAEPVIVRNVLEKTSGLSWEPMVMWRACREMDPKRKGTEEETTKVKALDCLDWCEVEINLHQFFEGYLEGRMHKNGWPEMLKLKDWPPSDLFEKRLPRHNAEFIAALPFFDYTDPKSGILNLATRFPEGSLKPDLGPKTYIAYGFHEELNRGDSVTKLHCDISDAVNVLTHTAKVEIPPVKYQNIKVHQKKYAEAMLQKQQYSGQVKEASELENKSMKEVDESKKDLKDKAANEEQSNNSSRPSGSGEAEKVIISKEDNPTQPAVSTSVESIQEQKLDAPKETDGNTNERSKAVHGGAVWDIFRREDVPKLIQFLKRHEHEFRHFNNEPLESVIHPIHDQTMFLSDSQKKQLKEEFDIEPWTFEQHLGEAVFIPAGCPHQVRNRQSCIKVALDFVAPESVEECLRLTQEFRRLPKDHSSSEDKLELKKIALYAASSAIREVKGLMQSSRRSDT
Turning to B1, the binding result was “binds”.
